Measurements reported in PubChem BioAssay AID1259282 (Sanger Institute, 2017)
Assay: 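Kinase knock-downs that work with targeted colorectal cancer drugs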 (primary screen). Cell system: DIFI human colorectal cancer cell line. Reagents: siRNA pool against human genes. Challenge: anchor drug at a mild dose (BYL719 1 µM, cetuximab 5 µg/ml, trametinib 10 nM) or DMSO vehicle; exposure time not given. Measurement: 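Robust z-score and replicate-mean viability versus non-targeting pool without drug, plus a synergy score for each low-dose anchor drug (BYL719, cetuximab, trametinib)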. Reading the numbers: robust z-score, knock-down alone: higher = more viable cells than typical knock-down. Rule for the call: 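a knock-down is called essential if its DMSO robust z-score is under -3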. Calls: active = essential (knock-down alone, z below -3); inactive = not essential.
Here is a random part of 794 deposited reagents. 11 of them (1.4%) count as active. 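Calls flag knock-downs that lower viability without drug; drug synergy appears only in the synergy scores; exposure time not stated.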 Not all columns of the deposit are shown. Not stated in the record: the amount of reagent, the time to read-out.

gene	robust z-score, knock-down alone	Outcome
NEK3 (NIMA related kinase 3)	-1.18	inactive
BMPR1B (bone morphogenetic protein receptor type 1B)	0.715	inactive
PRKDC (protein kinase, DNA-activated, catalytic subunit)	0.108	inactive
SYNCRIP (synaptotagmin binding cytoplasmic RNA interacting protein)	-2.18	inactive
PEAK1 (pseudopodium enriched atypical kinase 1)	-1.81	inactive
AMER1 (APC membrane recruitment protein 1)	-1.32	inactive
FYN (FYN proto-oncogene, Src family tyrosine kinase)	0.715	inactive
STK39 (serine/threonine kinase 39)	-2.41	inactive
PRKAG3 (protein kinase AMP-activated non-catalytic subunit gamma 3)	-1.94	inactive
KIT (KIT proto-oncogene, receptor tyrosine kinase)	0.0348	inactive
PIP5K1C (phosphatidylinositol-4-phosphate 5-kinase type 1 gamma)	-0.0115	inactive
EPHA8 (EPH receptor A8)	-1.85	inactive
MARK3 (microtubule affinity regulating kinase 3)	-1.27	inactive
RBM10 (RNA binding motif protein 10)	-2.02	inactive
RIOK2 (RIO kinase 2)	0.0552	inactive
HSPB8 (heat shock protein family B (small) member 8)	-0.215	inactive
ATP23	0.0256	inactive
GAK (cyclin G associated kinase)	0.715	inactive
GATA3 (GATA binding protein 3)	-0.268	inactive
CDKN2B (cyclin dependent kinase inhibitor 2B)	0.715	inactive

A stretch taken from the entries so far, for reference:
gene	robust z-score, knock-down alone	Outcome
PIP5K1C (phosphatidylinositol-4-phosphate 5-kinase type 1 gamma)	-0.0115	inactive
EPHA8 (EPH receptor A8)	-1.85	inactive
